# Experimental data reported in PubChem BioAssay AID2685 (National Center for Advancing Translational Sciences (NCATS), 2010).
# The list shows a part of the results. Shown are side measurements of this screen, not its main read-out; they come without a call. Compounds called inactive in the main read-out are mostly missing here. Words in brackets tell the shape of the fitted curve; partial curves, single points and poor fits give uncertain potencies.
# Assay: qHTS Assay for Lipid Storage Modulators in Drosophila S3 Cells;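 for cell number change: cells counted by Cell Tracker Red CMTPX staining in the red channel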
# Conditions: BODIPY lipid droplet fluorescence, 18-24 h; for cell number change: measured here: cell count max response, cells fed with added oleic acid
# Procedure, shortened: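 Drosophila S3 cells got compounds at several concentrations plus oleic acid (400 uM solution). Laser-scanning cytometry with 488 nm excitation read lipid droplets at 500-530 nm and cells at 575-640 nm. Percent activity was relative to 20 uM Triacsin C.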
# [1] = measured here: lipid fluorescence (Fed channel) AC50, cells fed with added oleic acid
# [2] = measured here: cell number channel AC50, cells fed with added oleic acid
SMILES,cell number change [%],AC50 [1],AC50 [2]
Cc1cc(C(=O)CSc2nnc(-c3ccncc3)n2-c2ccccc2)c(C)n1C,-1.43,,
O=C(C/C(=N\NC(=O)c1ccccc1Br)C(F)(F)F)c1cccs1,-24.4,"0.651 µM [rising, single point]",
CCN1CCCC1CN(Cc1cc2ccc(C)cc2[nH]c1=O)C(=S)Nc1ccccc1OC (configuration not stated),10.5,,"7.31 µM [falling, partial curve, poor fit]"
Cc1nnc(SCc2c(Cl)cccc2Cl)n(N)c1=O,39.6,,"20.6 µM [rising, single point]"
CC(C)(C)C1CCC(=NNC(=O)CN(c2ccccc2)S(C)(=O)=O)CC1 (configuration not stated),-23,"29.1 µM [falling, partial curve, poor fit]",
CN(C)Cc1cc(O)c(CN(C)C)cc1O,-60.1,"4.61 µM [falling, full curve]","5.17 µM [falling, partial curve]"
O=C1CCCC(=O)C1CS(=O)(=O)c1ccccc1,,"0.517 µM [falling, single point]",
CCOc1ccccc1Oc1c(C)oc2c(CN3CCN(C)CC3)c(O)ccc2c1=O,-2.73,"2.06 µM [rising, single point]",
Cn1c(=O)c([N+](=O)[O-])c(NCc2ccccc2)c2ccccc21,,"4.61 µM [falling, partial curve]","2.31 µM [falling, partial curve]"
CCCC(=O)NC(=S)Nc1cccc(C(C)=O)c1,5.59,,
CCOc1ccc(CCNC(=O)Cn2cccc2C(=O)c2ccccc2)cc1OCC,,"13 µM [falling, partial curve]",
Cc1csc(/C(C#N)=N/O)n1,-0.917,"0.461 µM [rising, partial curve, poor fit]",
CCOc1ccc(-c2nc(-c3ccncc3)no2)cc1OCC,22,,
CC(C)c1ccc(NC(=O)C2C3C=CC4(CN(CCCN5CCOCC5)C(=O)C24)O3)cc1 (configuration not stated),10,"8.2 µM [falling, partial curve, poor fit]",
CNS(=O)(=O)c1ccc(NC(=O)c2nc3nc(C)cc(C(F)F)n3n2)cc1,13.7,"1.3 µM [falling, full curve]",
CCC1CCCCN1C(=S)NC(=O)c1cccs1 (configuration not stated),,"0.58 µM [falling, partial curve]",
Cc1ccc(CN2CCC(C(=O)Nc3ccc(Oc4cccnc4)cc3)CC2)cc1,-28.7,"29.1 µM [falling, partial curve, poor fit]",
COc1ccccc1NS(=O)(=O)NC(=O)c1cn(C)c2ccccc12,-10.8,,
Cc1nc(SCC(=O)Nc2cccc(Cl)c2)n[nH]1,0.934,,
Cc1cc(C)c(-c2csc(NC(=O)C3=COCCO3)n2)cc1C,196,,"16.4 µM [rising, single point]"
COC(=O)Nc1nnc(-c2ccco2)s1,-23.5,"32.6 µM [falling, single point]",

SMILES,cell number change [%],AC50 [1],AC50 [2]
CN(C(=O)c1ccc(S(=O)(=O)N2CCCC2)cc1)C1CCS(=O)(=O)C1 (configuration not stated),-23,"0.0291 µM [falling, full curve, poor fit]",
COc1ccc(CC(=O)Nc2ccccc2C(=O)N2CCCC2)cc1,-11.6,"1.84 µM [rising, partial curve]",
O=C(Oc1ccccc1Cl)c1ccccc1P(=O)(O)O,-11.9,"0.116 µM [rising, full curve, poor fit]",
Cc1cccc(-n2ncc3c2CCCC3NC(=O)c2ccc[n+]([O-])c2)c1C (configuration not stated),-20.8,,
COC(=O)CCC(=O)N1CCCC(N2CCN(c3ccc(OC)cc3)CC2)C1 (configuration not stated),-11.8,,"0.00651 µM [falling, full curve, poor fit]"
Cc1c(OCC(=O)NCCCn2ccnc2)ccc2c3c(c(=O)oc12)CCC3,-31.6,,"29.1 µM [falling, single point]"
COc1ccccc1Cn1c(-c2ccccc2OC)nc2ccccc21,-59.9,"29.1 µM [falling, single point]","13 µM [falling, single point]"
O=C1C(=Cc2ccco2)C(=O)c2ccccc21,9.61,"7.31 µM [falling, single point]","6.51 µM [falling, single point]"
O=C1OCCC1Sc1nc2ccccc2n1-c1ccccc1 (configuration not stated),30.3,"20.6 µM [rising, partial curve]","9.2 µM [rising, partial curve]"
Fc1ccccc1Nc1n[nH]c(=S)s1,-13,,
COc1ccc(OC)c(NC(=O)Cc2nn(C)c(=O)c3ccccc23)c1,-20.3,"29.1 µM [falling, single point]",
CCOc1ccccc1NC(=O)CN1CCN(C(=O)C2CCCO2)CC1 (configuration not stated),-13.2,"0.82 µM [falling, full curve, poor fit]",
O=C(CSc1nnc(-c2ccc(Cl)cc2)n1Cc1ccco1)c1cccs1,51.7,"29.1 µM [rising, single point]","23.1 µM [rising, single point]"
Cc1cccc(N2CCN(CC(=O)NCC3CCCCC3)CC2)c1C,-56.8,"23.1 µM [falling, single point]","20.6 µM [falling, single point]"
Cc1ccc(S(=O)(=O)Cc2csc(N)n2)cc1,-4.75,"20.6 µM [falling, single point]",
COCCNC(=S)N/N=C(\C)c1ccccc1F,34,,"0.0231 µM [rising, full curve]"
O=C(c1ccccc1-c1ccccc1)N1CCOCC1,-36.2,"3.26 µM [falling, partial curve, poor fit]","10.3 µM [falling, partial curve, poor fit]"
Oc1c(N=NC(=S)Nc2ccccc2F)c2ccccc2n1Cc1cccc(Cl)c1,-31.4,"16.4 µM [falling, single point]","16.4 µM [falling, single point]"
COC(=O)C(N)Cc1ccc(OC)c([N+](=O)[O-])c1 (configuration not stated),11.4,"0.259 µM [rising, single point]",
CC1CC(C)CN(C(=O)CSc2nnc(-c3ccc(Cl)cc3)o2)C1 (configuration not stated),-2.62,,
CC(=O)N(c1nc(/C=C\C(=O)O)cs1)c1ccccc1F,-5.9,"0.0517 µM [falling, full curve, poor fit]",

SMILES,cell number change [%],AC50 [1],AC50 [2]
COC(=O)c1c(NC(=O)CN2CCC(C)CC2)c2c(C)cccc2n1C,-14.4,"6.51 µM [rising, single point]","0.146 µM [rising, full curve, poor fit]"
COC(=O)c1cc2ccsc2n1CC(=O)Nc1cc(Cl)ccc1OC,-73.7,,"29.1 µM [falling, single point]"
COc1cc(C)c(CN2CCN(CC(=O)Nc3ccccc3C(=O)NC3CC3)CC2)cc1OC,2.59,"14.6 µM [rising, partial curve, poor fit]",
Cc1cccc(C)c1OCC(=O)Nc1ncn[nH]1,13.1,"25.9 µM [rising, single point]",
CC(=O)N1CCSc2ccc(S(=O)(=O)Nc3ccc(C)cc3)cc21,,"20.6 µM [falling, partial curve]",
Cc1ccc2c(c1)C(=C(C#N)C#N)C(=O)N2CCN1CCCCC1,2.65,,
CCOC(=O)c1c(C)[nH]c(C)c1C(=O)COC(=O)[C@@H]1CCCN1S(=O)(=O)c1ccc(Cl)cc1,-14.1,,
O=C(N/N=C/c1ccc(OCCCF)cc1)c1cc(OCC(F)(F)F)ccc1OCC(F)(F)F,-20.3,"11.6 µM [falling, partial curve]",
CCC(=O)Nc1nnc(S(=O)(=O)N(C)c2ccccc2)s1,,"6.51 µM [rising, single point]",
CC(NC(=O)COC(=O)CCc1nc2ccccc2c(=O)[nH]1)c1ccccc1 (configuration not stated),43.8,"29.1 µM [rising, single point]","29.1 µM [rising, single point]"
CC(=O)Nc1ccc(-c2csc(NC(=O)CCCc3cccs3)n2)cc1,-7.69,,
COc1ccc(NC(=O)C(CCS(C)(=O)=O)N2C(=O)c3ccccc3C2=O)cc1 (configuration not stated),-80.7,,"16.4 µM [falling, partial curve]"
CCC1CCCCN1CCCNC(=O)C1CC(=O)N(CCc2ccccc2)C1 (configuration not stated),-11,"0.82 µM [rising, full curve, poor fit]",
CC1CC(=O)N(CC(=O)Nc2ccccc2F)c2ccccc2S1(=O)=O (configuration not stated),83.3,"23.1 µM [rising, single point]","18.4 µM [rising, single point]"
CS(=O)(=O)c1ccc(NC(=O)C2CC(=O)N(c3ccc4c(c3)OCCO4)C2)cc1 (configuration not stated),7.26,"0.326 µM [falling, full curve]","0.411 µM [falling, full curve, poor fit]"
COc1ccc(NC(=O)Cn2nnc(C(=O)NCCc3ccccc3)c2N)cc1,,"0.00517 µM [falling, full curve, poor fit]",
Cc1ccc(C)n1CCN1CCN(C(=O)CSc2nc3ccccc3nc2N2CCOCC2)CC1,6.35,"0.164 µM [rising, full curve, poor fit]",
O=C(CN1C(=O)NC2(CCCC2)C1=O)Nc1ccc(F)c([N+](=O)[O-])c1,6.96,"23.1 µM [falling, single point]",
COCCCNC(=S)Nc1cccc(SC)c1,21,,"0.13 µM [rising, full curve, poor fit]"

# In a second layout: entries from further up.
SMILES	cell number change [%]	AC50 [1]	AC50 [2]
COC(=O)c1c(NC(=O)CN2CCC(C)CC2)c2c(C)cccc2n1C	-14.4	6.51 µM [rising, single point]	0.146 µM [rising, full curve, poor fit]
CCOC(=O)c1c(C)[nH]c(C)c1C(=O)COC(=O)[C@@H]1CCCN1S(=O)(=O)c1ccc(Cl)cc1	-14.1		
CS(=O)(=O)c1ccc(NC(=O)C2CC(=O)N(c3ccc4c(c3)OCCO4)C2)cc1 (configuration not stated)	7.26	0.326 µM [falling, full curve]	0.411 µM [falling, full curve, poor fit]
